From US10813980B2, “Methods for treating osteoarthritis by administering linked variants of growth hormone and somatostatin” (REGULAXIS, priority 2016, dated 2020)
At least one compound was matched to its structure with a doubt left.

Assay: Raman scattering measurements of peptide conformation (stability of the peptide)
Assay type: physicochemical
Settings: in phosphate buffer; schematic result
Procedure: Peptide alone, at a concentration of 0.9 mM (2.5 mg/ml), was dissolved in a Millipore filter treated water. Peptide+HA solution consists of peptide dissolved at 0.9 mM in a solution of HA (1.8 MDa) at 1% (10 mg/ml) in water.
Samples were placed in a suprasil quartz cell (5 mm path length) and excited by the 488 nm line of an Ar+ laser (Spectra Physics, CA, USA) with a ˜200 mW power at the sample. Scattered light at right angle was analyzed on a Jobin-Yvon T64000 (HORIBA Jobin-Yvon, France) in a single spectrograph configuration with a 1200 grooves per mm holographic grating and a holographic notch filter. Stokes Raman data were collected by means of a liquid nitrogen cooled CCD detection system (Spectrum One, Jobin-Yvon, France). The effective spectral slit width was set to ˜5 cm^−1. Each recorded spectrum corresponds to a total acquisition time of 1200 s. Buffer subtraction and smoothing of the observed Raman spectra could be performed using the GRAMS/AI package (Thermoage Galactic, MA, USA). The final presentation of these spectra was performed by means of SigmaPlot package (Systat Software Inc., CA, USA).

C[C@H](N)C(=O)NCC(=O)N[C@H]1CSSC[C@@H](C(=O)O)NC(=O)[C@H](CO)NC(=O)[C@H]([C@@H](C)O)NC(=O)[C@H](Cc2ccccc2)NC(=O)[C@H]([C@@H](C)O)NC(=O)[C@H](CCCCN)NC(=O)[C@H](Cc2c[nH]c3ccccc23)NC(=O)[C@H](Cc2ccccc2)NC(=O)[C@H](Cc2ccccc2)NC(=O)[C@H](CC(N)=O)NC(=O)[C@H](CCCCN)NC1=O [somatostatin]
beta-marker Raman band at 1668 cm^−1 (secondary conformation): unique component
